These are yes or no findings as the source states them, for the method shown. Binding seen in cells or lysates may run through a third protein. Some entries that bind do so weakly or less than the wild type.
What was measured:
[1] = biological target: Beclin-1 (human (endogenous in IM-9 and IM-9/Bcl-2)) (UniProt Q14457); assay: co-IP; IM-9 cells in complete medium (control), with 10 μg/ml BetA (24 h) or EBSS (12 h); lysates precipitated with anti-Beclin 1 antibody and protein G-Sepharose, blotted for Bcl-2, Vps34 and Beclin 1
[2] = biological target: HA-tagged Beclin-1 (WT) (human (cDNA by RT-PCR from RNA of the cells)) (UniProt Q14457); assay: co-IP; BetA-treated IM-9/Bcl-2 cells transfected with HA-Beclin-1 (WT) or HA-Beclin-1 T119A with or without Flag-DAPK ΔCaM; precipitated with HA antibodies, co-precipitated proteins blotted
[3] = biological target: HA-tagged T119A Beclin-1 mutant (human (cDNA by RT-PCR from RNA of the cells)) (UniProt Q14457); assay: as above
[4] = biological target: Beclin-1 (human (endogenous in IM-9 and IM-9/Bcl-2)) (UniProt Q14457); assay: co-IP; IM-9/Bcl-2 cells in complete medium (control), with 10 μg/ml BetA (24 h) or EBSS (12 h); lysates precipitated with anti-Beclin 1 antibody and protein G-Sepharose, blotted for Bcl-2, Vps34 and Beclin 1
[5] = biological target: Beclin-1 (human (endogenous in IM-9 and IM-9/Bcl-2)) (UniProt Q14457); assay: condition: only cells treated with 10 μg/ml BetA for 24 h (similar to starvation, EBSS 12 h); co-IP; as a1, IM-9/Bcl-2 cells treated with 10 μg/ml BetA for 24 h (EBSS starvation, 12 h, as autophagy control); anti-Beclin 1 precipitate blotted for Bcl-2

Protein sequences, listed by entry. Tags and fused reporters are not part of them. Lines headed by an entry give the natural chain unless they say otherwise; changes in a name come on top.
UniProt Q14457: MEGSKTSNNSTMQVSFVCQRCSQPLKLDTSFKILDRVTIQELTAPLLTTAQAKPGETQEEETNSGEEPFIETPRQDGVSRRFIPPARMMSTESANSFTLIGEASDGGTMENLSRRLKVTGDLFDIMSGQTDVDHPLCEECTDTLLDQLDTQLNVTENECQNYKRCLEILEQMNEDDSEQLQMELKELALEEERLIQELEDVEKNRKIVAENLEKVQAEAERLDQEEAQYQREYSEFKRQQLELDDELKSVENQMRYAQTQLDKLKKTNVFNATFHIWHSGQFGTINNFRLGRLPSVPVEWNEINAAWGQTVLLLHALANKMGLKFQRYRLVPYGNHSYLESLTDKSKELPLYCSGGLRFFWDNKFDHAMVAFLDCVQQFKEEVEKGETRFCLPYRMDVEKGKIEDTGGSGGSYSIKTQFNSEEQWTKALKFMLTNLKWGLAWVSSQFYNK
UniProt P10415: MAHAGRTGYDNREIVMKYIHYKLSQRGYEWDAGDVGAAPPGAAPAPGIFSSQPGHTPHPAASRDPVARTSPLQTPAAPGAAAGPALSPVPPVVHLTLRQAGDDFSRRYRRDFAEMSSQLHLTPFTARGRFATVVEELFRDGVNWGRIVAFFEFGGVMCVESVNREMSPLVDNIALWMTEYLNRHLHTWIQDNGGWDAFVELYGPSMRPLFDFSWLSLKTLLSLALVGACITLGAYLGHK

| binding [1] | binding [2] | binding [3] | binding [4] | binding [5] | Substance |
| --- | --- | --- | --- | --- | --- |
| binds | – | – | – | – | Bcl-2 (endogenous in IM-9 cells) (from UniProt P10415 1-239) |
| – | binds | binds | binds | no binding | Bcl-2 (overexpressed in IM-9/Bcl-2 cells) (from UniProt P10415 1-239) |
